The entries are a selection whose mix differs from that of the whole data set. At the low end of the ranking the order means little.

Chains of the proteins cited; added tags and fusions are not shown. Lines headed by an entry give the natural chain unless they say otherwise; changes in a name come on top.
UniProt Q01892: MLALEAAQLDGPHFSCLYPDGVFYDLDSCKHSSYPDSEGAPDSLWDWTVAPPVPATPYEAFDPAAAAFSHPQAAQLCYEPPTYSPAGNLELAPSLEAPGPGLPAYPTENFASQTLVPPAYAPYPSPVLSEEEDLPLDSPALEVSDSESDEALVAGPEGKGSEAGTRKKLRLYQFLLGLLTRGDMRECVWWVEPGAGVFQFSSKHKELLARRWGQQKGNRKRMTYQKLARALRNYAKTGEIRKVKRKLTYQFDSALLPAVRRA
UniProt P41161: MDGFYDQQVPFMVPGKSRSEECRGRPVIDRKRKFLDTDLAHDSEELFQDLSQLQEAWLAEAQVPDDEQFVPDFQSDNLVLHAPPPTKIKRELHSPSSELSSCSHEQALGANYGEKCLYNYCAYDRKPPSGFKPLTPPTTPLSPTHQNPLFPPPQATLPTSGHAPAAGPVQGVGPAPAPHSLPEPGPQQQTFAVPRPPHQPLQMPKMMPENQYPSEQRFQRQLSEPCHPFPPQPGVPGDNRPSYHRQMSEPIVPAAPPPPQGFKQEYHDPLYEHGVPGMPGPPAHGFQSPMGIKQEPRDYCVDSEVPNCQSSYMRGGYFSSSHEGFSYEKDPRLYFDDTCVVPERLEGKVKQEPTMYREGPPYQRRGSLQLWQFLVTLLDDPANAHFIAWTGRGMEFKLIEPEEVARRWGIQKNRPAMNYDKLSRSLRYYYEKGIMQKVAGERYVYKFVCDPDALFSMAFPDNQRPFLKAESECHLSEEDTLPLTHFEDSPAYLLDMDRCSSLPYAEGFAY
UniProt Q99607: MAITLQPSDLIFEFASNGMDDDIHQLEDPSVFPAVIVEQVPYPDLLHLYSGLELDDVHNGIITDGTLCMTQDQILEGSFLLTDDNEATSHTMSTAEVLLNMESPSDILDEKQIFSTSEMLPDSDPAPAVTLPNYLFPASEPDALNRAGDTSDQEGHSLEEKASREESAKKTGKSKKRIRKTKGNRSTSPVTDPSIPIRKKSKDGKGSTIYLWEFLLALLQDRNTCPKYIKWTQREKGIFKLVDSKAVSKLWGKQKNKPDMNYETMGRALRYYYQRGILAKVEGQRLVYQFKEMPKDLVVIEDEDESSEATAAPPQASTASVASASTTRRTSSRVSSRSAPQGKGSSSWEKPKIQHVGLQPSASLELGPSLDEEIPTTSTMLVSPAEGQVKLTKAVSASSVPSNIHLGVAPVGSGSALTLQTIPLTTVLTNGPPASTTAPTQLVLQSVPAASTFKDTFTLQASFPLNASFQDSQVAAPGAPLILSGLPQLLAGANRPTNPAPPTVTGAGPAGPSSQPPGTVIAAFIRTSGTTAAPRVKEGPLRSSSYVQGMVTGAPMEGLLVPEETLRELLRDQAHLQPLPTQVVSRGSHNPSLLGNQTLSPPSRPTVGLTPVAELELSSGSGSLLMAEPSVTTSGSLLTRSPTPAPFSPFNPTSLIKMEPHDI

Targets include SPIB (UniProt Q01892); ETV5 (UniProt P41161); ELF4 (UniProt Q99607).
Common to all, as to test: DAPPL (digital affinity profiling via proximity ligation, sequencing)
Holding throughout (conditions): 10 mM Tris-HCl pH 7.5, 50 mM NaCl, 1 mM DTT, 4% glycerol, room temperature, 30 min; GST-TFs on glutathione beads, 16-mer random dsDNA library, 0.1% …; high values mean tight binding; double strand, one strand shown; scale: fold enrichment (6-mer frequency, TF over GST control)

The target in the next experiment is T1, FLI1 (UniProt Q01543).
T1 sequence: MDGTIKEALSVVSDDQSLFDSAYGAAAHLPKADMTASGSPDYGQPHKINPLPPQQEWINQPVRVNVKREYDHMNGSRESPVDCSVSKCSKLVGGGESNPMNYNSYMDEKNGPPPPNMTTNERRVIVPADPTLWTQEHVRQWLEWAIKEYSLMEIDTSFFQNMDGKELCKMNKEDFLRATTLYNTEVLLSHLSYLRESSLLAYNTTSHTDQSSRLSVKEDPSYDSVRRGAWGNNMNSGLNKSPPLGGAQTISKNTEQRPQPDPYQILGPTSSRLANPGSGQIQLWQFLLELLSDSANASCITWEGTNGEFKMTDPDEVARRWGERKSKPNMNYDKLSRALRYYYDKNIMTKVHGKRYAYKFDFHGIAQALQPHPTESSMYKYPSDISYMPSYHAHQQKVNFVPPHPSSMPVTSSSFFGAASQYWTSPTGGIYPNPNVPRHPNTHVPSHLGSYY

The next experiment deals with T2, EHF (UniProt Q9NZC4).
T2 sequence: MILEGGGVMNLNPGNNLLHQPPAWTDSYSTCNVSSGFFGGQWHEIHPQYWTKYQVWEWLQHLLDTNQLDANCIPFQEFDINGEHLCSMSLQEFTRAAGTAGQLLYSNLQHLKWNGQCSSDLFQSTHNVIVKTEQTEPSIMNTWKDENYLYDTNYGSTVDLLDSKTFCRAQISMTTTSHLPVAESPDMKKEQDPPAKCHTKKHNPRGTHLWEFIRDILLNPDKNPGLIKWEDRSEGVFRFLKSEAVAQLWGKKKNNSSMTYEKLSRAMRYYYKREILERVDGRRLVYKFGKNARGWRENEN

Another experiment deals with T3, ETV2 (UniProt O00321).
T3 sequence: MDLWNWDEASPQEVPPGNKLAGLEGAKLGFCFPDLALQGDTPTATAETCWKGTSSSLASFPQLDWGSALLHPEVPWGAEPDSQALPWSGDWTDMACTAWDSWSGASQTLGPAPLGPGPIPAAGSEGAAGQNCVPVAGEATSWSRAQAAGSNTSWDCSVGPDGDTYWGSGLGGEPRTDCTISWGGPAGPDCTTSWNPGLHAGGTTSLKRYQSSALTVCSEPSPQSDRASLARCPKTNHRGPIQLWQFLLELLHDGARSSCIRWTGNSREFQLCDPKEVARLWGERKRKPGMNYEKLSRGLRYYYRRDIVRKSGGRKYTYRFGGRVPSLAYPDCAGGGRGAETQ

Another experiment addresses T4, ETV3L (UniProt Q6ZN32).
T4 sequence: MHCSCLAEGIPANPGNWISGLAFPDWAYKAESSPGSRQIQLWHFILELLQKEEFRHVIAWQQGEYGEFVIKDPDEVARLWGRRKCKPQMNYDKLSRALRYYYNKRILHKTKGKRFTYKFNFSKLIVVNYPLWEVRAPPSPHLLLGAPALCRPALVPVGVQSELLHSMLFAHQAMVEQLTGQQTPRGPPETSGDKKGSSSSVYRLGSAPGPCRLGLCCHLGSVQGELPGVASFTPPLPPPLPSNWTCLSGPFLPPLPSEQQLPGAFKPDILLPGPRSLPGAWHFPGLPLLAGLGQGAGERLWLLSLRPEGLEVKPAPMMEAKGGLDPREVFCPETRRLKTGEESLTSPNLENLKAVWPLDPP

TAGACA: the binding signal worked out at 0.983 with FLI1; 0.906 in the experiment with EHF; 0.909 with SPIB; 0.954 with ETV5; 0.971 with ELF4; 1.01 with ETV2.

Turning to CATCAA, the binding signal was 0.937 in the experiment with FLI1; 0.995 with EHF; 0.956 in the experiment with SPIB; 0.994 with ETV5; 1.05 with ELF4; 0.931 with ETV2.

With GTAGAT, the binding signal worked out at 1 with FLI1; 0.997 with EHF; 0.91 in the experiment with SPIB; 0.952 in the experiment with ETV5; 0.94 with ELF4; 0.924 in the experiment with ETV2.

As for CGAATG, the binding signal was found to be 0.993 in the experiment with FLI1; 0.99 with SPIB; 0.911 with ETV5; 1.13 with ELF4; 1 with ETV2; 0.995 with ETV3L.

Consider TCTGAG, for which the binding signal with FLI1 was found to be 0.975; in the experiment with SPIB it was 0.92; in the experiment with ETV5, 0.939; in the experiment with ELF4, 0.918; in the experiment with ETV2, 0.993.

With CCACGT, the binding signal was determined as 0.973 in the experiment with FLI1; 0.93 with EHF; 0.973 with ETV5; 0.977 with ELF4; 0.974 in the experiment with ETV2.

On to GCGTTA, for which the binding signal amounted to 0.927 in the experiment with FLI1; 0.872 with EHF; 0.914 with SPIB; 0.892 with ETV5; 0.915 in the experiment with ELF4; 0.97 with ETV2.

Take CACTAG: the binding signal with FLI1 came to 0.985; in the experiment with EHF, 0.977; in the experiment with ETV5, 0.984; in the experiment with ELF4, 0.973; with ETV2 it was 0.997.

For the sequence GTCATT, the binding signal with FLI1 is 0.934; with EHF, 0.944; in the experiment with SPIB, 0.923; in the experiment with ETV5, 0.939; in the experiment with ELF4, 0.98; with ETV2, 0.938.

As to GCGGCT, the binding signal with FLI1 was 0.956; with SPIB, 0.952; with ETV5 it was 0.974; in the experiment with ELF4 it was 0.886; in the experiment with ETV2, 1.08; in the experiment with ETV3L, 0.99.

Take CACGGC: the binding signal with FLI1 stood at 0.98; with EHF it was 0.912; in the experiment with SPIB, 0.997; in the experiment with ETV5, 0.978; with ELF4, 0.954; with ETV2 it was 0.797.

For AGTTTA, the binding signal in the experiment with FLI1 came to 0.948; with EHF, 0.94; with ETV5, 0.907; with ELF4 it was 0.94; with ETV2, 0.976.

Take GCGTTG: the binding signal in the experiment with FLI1 was 1.1; with EHF, 0.864; in the experiment with SPIB, 0.918; with ETV5, 0.949; with ELF4, 0.932; with ETV2, 1.01.

With TCGTTG, the binding signal was determined as 1.01 with FLI1; 0.906 in the experiment with EHF; 0.981 in the experiment with SPIB; 0.904 with ETV5; 0.891 with ELF4; 1.19 with ETV2.

As to GCGATA, the binding signal with FLI1 turned out to be 0.956; with EHF, 0.994; with SPIB, 1.02; with ETV5, 0.974; with ELF4, 0.978; with ETV2 it was 1.11.

Turning to AGATGG, the binding signal in the experiment with FLI1 is 0.859; with EHF it was 0.814; with SPIB it was 0.833; in the experiment with ETV5, 0.847; with ELF4 it was 0.858; with ETV3L, 0.909.

GCCTAG: the binding signal with FLI1 was determined as 0.957; with EHF, 0.94; with SPIB it was 0.834; with ETV5, 0.901; with ELF4, 0.937; with ETV3L, 0.954.

For the sequence CCATAG, the binding signal is 0.873 with FLI1; 0.992 with EHF; 0.986 in the experiment with SPIB; 0.955 with ETV5; 0.889 with ELF4; 0.94 in the experiment with ETV3L.

For the sequence AATACG, the binding signal with FLI1 was 1.11; with ETV5, 1.27; with ELF4 it was 1.29; with ETV3L, 1.23.

For the sequence GCAGAT, the binding signal is 0.935 in the experiment with FLI1; 0.914 with EHF; 0.978 with ETV5; 0.956 in the experiment with ELF4; 0.904 in the experiment with ETV3L.

On to GTGCCG, for which the binding signal with FLI1 is 0.839; in the experiment with EHF, 0.886; with SPIB, 0.834; with ETV5, 0.886; in the experiment with ELF4, 0.959; with ETV3L it was 0.907.

Turning to ACTGTC, the binding signal with FLI1 came to 1.02; with EHF it was 0.947; in the experiment with SPIB, 1.05; in the experiment with ETV5 it was 0.985; with ELF4 it was 0.946; with ETV3L, 0.924.

Turning to GTCTGG, the binding signal with FLI1 came to 0.82; with EHF, 0.848; with SPIB, 0.925; with ETV5, 0.904; with ELF4, 0.795; with ETV3L, 0.806.

Turning to TTGGGA, the binding signal stood at 0.927 with FLI1; 0.842 in the experiment with EHF; 0.905 in the experiment with SPIB; 0.977 in the experiment with ETV5; 0.903 with ELF4; 0.843 with ETV3L.

(Values after PMC7862700.)
